Data: US9005627B2 (Anergis S.A., priority 2011, dated 2015)
Where a sequence shows no end group, the ends are not given. No end group written: not given here.

Experiment: general procedure: Fmoc solid-phase peptide synthesis
Conditions: whole synthesis, scale of the general procedure research scale of the general procedure

AGSDGDAISISGSSQIWIDHCSLSKSVDGLVDAKLGTTRLTVSNSLFTQHQFVLLFGAGDENIEDRGMLATVAFNTFTDN
final purity (method not given): 60%

MHDVKVNPGGLIKSNDGPAAPRAGSDGDAISISGSSQIWIDHCSLSKSVDGLVDAKLGTTR
final purity (method not given): 60%

VDAKLGTTRLTVSNSLFTQHQFVLLFGAGDENIEDRGMLATVAFNTFTDN
final purity (method not given): 70%
